According to paper PMC4741301:
These are yes or no findings as the source states them, for the method shown. For some assays here: Binding seen in cells or lysates may run through a third protein. Some results given as binding are weak or reduced against the parent protein; the word gives no strength. For some assays here: Sequences can lack the tags named with a protein.

Sequences of proteins named here, by UniProt entry; tags and fusion partners are left off.
UniProt Q8WVT3: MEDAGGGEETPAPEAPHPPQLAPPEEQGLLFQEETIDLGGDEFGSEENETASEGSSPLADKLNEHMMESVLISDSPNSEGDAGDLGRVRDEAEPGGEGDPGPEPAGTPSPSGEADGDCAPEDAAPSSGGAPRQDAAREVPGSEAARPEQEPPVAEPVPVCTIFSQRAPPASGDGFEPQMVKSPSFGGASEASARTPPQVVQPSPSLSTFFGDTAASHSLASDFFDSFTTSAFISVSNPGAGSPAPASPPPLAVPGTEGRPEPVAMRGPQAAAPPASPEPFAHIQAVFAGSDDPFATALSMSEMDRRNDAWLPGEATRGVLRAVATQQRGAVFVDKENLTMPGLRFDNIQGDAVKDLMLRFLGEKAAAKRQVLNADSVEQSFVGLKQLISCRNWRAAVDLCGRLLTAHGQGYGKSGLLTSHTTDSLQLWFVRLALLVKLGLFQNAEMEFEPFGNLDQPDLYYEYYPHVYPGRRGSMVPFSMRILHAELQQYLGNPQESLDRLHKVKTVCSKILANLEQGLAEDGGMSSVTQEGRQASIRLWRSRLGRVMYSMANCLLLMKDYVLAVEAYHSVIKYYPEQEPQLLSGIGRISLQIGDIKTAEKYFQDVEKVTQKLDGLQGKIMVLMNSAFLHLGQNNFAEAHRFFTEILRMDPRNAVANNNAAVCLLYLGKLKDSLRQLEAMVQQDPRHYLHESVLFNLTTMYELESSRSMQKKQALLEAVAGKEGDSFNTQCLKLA
UniProt Q9Y2L5: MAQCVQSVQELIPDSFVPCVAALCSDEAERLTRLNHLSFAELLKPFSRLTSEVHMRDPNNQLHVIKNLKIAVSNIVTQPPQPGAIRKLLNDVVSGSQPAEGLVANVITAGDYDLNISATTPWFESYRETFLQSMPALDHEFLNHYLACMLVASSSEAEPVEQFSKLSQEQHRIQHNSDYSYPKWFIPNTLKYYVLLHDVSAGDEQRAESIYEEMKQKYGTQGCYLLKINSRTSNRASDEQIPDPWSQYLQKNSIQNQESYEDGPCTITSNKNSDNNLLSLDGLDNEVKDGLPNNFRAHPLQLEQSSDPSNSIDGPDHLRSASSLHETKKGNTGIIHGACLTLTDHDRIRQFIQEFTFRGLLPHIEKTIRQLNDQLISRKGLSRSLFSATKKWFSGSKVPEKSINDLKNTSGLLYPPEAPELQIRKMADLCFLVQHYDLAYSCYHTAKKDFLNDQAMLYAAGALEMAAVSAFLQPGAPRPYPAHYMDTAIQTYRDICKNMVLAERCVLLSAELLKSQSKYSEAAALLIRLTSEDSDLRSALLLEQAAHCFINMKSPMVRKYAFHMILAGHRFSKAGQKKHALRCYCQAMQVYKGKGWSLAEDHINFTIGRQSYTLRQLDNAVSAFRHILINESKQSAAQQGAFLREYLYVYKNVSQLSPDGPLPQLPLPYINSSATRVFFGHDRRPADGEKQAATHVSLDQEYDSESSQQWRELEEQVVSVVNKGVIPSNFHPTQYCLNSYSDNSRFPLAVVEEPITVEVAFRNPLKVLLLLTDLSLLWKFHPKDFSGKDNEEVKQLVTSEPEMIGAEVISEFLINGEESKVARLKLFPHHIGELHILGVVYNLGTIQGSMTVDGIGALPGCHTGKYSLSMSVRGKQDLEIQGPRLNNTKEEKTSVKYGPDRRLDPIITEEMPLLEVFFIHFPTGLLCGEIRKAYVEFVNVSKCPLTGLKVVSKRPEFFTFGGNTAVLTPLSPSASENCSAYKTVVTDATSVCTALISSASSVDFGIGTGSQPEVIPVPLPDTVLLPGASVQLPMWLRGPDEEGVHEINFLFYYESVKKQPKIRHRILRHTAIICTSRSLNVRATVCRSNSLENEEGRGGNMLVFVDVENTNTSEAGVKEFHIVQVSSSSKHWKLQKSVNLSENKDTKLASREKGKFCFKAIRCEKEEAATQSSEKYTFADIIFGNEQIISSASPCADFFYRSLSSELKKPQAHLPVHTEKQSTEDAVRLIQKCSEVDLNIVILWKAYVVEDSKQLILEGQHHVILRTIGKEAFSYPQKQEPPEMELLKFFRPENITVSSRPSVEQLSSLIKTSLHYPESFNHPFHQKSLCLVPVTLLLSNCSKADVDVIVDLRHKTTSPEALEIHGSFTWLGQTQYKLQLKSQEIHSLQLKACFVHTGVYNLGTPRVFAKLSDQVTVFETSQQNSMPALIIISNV
UniProt Q9Y296: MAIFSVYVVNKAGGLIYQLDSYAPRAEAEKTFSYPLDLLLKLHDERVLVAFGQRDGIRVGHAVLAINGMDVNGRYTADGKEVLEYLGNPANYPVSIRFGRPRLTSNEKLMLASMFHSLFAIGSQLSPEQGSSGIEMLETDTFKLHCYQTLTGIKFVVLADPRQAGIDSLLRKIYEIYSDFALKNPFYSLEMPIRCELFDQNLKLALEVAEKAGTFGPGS
UniProt Q9H0U4: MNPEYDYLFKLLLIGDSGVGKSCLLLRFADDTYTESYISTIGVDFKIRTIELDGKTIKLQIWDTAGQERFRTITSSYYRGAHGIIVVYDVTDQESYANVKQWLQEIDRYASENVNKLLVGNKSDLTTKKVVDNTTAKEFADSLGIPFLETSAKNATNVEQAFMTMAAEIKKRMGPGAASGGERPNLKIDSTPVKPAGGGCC

Legend:
[1] = target: TRAPPC12/TTC15 (human (endogenous in HEK293A)) (UniProt Q8WVT3); assay: SEC; size exclusion chromatography of endogenous proteins, fractions immunoblotted; complex of approximately 600 kDa
[2] = target: TRAPPC8 (human (endogenous in HEK293A)) (UniProt Q9Y2L5); assay: as above
[3] = target: TRAPPC12/TTC15 (human (endogenous in HEK293A)) (UniProt Q8WVT3); assay: co-IP; HEK293A cells lysed in 400 µl TNTE; IP with mouse anti‐TRAPPC12/TTC15 or mouse anti‐GFP (control) bound to protein G‐Sepharose; immunoblot for TRAPPC8 and TRAPPC12
GFP‐Golgin‐84 = target: T1, GFP‐Golgin‐84 (UniProt Q8TBA6); assay: co-IP; GFP‐Trap IP from lysates of HEK293A cells expressing GFP‐Golgin‐84, with myc‐TBC1D14 or empty vector, or with RISC‐free, TBC1D14, TRAPPC8 or RAB1B siRNA; immunoblot for RAB1B
T1 sequence: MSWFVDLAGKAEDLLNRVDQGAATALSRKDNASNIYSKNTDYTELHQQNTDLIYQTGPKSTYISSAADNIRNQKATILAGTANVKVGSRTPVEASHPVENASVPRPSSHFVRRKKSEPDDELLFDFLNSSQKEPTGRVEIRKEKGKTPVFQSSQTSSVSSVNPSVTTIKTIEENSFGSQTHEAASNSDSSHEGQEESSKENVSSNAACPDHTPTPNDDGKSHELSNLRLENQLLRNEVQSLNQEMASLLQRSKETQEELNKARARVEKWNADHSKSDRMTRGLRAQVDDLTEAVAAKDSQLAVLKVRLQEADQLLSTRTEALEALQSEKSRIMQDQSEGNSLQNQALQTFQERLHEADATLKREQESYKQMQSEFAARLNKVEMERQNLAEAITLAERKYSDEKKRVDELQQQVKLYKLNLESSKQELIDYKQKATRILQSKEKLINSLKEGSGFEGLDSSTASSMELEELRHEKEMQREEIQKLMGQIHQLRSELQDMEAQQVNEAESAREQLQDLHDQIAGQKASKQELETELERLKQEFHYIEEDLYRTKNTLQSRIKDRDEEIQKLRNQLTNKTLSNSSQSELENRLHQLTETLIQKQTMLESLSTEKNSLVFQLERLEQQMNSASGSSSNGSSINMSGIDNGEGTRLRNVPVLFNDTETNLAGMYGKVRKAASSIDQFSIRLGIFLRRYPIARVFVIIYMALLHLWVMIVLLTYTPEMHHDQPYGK

**Q.** How did the binding [1] turn out when TRAPPC4 (from UniProt Q9Y296 1-219) was run?
**A.** binds

**Q.** And the binding [2]?
**A.** binds

**Q.** For TRAPPC8 (from UniProt Q9Y2L5 1-1435), which binding [1] is on record?
**A.** binds

**Q.** What about the binding [3] of the same substance?
**A.** binds

**Q.** Which binding (GFP‐Golgin‐84) does the source give for “endogenous RAB1B (from UniProt Q9H0U4 1-201)” here?
**A.** binds
